In assay [1] the target is T1, EB1, yeast two-hybrid fusion (UniProt Q9XZ57).
T1 sequence: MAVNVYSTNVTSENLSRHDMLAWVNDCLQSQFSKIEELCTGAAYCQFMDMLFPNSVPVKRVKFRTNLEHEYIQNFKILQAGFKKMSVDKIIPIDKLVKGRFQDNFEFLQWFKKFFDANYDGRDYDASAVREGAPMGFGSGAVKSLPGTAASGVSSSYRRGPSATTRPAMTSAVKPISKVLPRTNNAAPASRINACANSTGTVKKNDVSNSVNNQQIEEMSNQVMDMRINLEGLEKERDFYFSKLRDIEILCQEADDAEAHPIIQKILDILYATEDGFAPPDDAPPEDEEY
The assay can be described thus: two-hybrid.

The target of a further assay is T2, GFP::EB1 (UniProt Q9XZ57).
T2 sequence: T1 sequence
Kind of assay: co-IP.

2 substances from doi:10.1101/413997 can be followed below.

Results are given in words; binding and its absence hold for the method and conditions named. Binding can be weak; no strength is given. Sequences can lack the tags named with a protein. For some assays here: In cells and extracts the contact can be indirect.

For “FIP^439-657, yeast two-hybrid fusion (Drosophila melanogaster) (domain or fragment)”, the binding result in assay [1] is “binds”.
For Flag::FIP (Drosophila melanogaster), the binding result with GFP::EB1 is “binds”.
